Assay results as given in paper PMC11557686.
Results are given in words; binding and its absence hold for the method and conditions named. In cells and extracts the contact can be indirect. Binding can be weak; no strength is given. For part of these data: Where a sequence is shown, tags or fusion partners need not be part of it.

By UniProt entry, the sequences of proteins in these tests, tags left out. Where a name states a change or a piece, a line headed by the entry shows the natural chain unless it says otherwise.
UniProt O15260: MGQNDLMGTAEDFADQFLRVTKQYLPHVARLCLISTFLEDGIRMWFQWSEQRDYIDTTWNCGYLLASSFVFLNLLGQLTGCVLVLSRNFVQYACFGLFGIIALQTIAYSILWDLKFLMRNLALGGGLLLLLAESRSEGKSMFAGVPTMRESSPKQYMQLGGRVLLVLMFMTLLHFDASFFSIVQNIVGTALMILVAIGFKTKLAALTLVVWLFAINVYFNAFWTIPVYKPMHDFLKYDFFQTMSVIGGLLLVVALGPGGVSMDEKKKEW
UniProt Q8NBP7: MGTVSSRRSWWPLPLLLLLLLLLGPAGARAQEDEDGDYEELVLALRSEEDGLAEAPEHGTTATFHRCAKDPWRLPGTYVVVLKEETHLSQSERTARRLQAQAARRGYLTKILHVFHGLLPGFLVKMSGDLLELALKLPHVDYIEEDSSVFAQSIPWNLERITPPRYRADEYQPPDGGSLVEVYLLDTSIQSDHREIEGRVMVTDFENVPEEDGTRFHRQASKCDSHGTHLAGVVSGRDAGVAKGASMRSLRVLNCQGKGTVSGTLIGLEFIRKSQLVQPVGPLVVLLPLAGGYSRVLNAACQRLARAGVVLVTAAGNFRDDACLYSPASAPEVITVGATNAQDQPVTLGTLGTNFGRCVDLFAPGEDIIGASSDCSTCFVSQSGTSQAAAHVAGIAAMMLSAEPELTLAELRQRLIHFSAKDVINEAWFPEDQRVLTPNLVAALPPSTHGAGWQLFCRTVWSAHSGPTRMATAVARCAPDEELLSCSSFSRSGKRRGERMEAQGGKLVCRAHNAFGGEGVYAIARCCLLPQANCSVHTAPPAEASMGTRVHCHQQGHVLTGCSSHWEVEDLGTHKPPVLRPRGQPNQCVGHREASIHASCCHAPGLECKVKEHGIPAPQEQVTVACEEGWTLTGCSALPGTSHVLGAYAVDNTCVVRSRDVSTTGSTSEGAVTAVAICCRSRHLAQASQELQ
UniProt O95486: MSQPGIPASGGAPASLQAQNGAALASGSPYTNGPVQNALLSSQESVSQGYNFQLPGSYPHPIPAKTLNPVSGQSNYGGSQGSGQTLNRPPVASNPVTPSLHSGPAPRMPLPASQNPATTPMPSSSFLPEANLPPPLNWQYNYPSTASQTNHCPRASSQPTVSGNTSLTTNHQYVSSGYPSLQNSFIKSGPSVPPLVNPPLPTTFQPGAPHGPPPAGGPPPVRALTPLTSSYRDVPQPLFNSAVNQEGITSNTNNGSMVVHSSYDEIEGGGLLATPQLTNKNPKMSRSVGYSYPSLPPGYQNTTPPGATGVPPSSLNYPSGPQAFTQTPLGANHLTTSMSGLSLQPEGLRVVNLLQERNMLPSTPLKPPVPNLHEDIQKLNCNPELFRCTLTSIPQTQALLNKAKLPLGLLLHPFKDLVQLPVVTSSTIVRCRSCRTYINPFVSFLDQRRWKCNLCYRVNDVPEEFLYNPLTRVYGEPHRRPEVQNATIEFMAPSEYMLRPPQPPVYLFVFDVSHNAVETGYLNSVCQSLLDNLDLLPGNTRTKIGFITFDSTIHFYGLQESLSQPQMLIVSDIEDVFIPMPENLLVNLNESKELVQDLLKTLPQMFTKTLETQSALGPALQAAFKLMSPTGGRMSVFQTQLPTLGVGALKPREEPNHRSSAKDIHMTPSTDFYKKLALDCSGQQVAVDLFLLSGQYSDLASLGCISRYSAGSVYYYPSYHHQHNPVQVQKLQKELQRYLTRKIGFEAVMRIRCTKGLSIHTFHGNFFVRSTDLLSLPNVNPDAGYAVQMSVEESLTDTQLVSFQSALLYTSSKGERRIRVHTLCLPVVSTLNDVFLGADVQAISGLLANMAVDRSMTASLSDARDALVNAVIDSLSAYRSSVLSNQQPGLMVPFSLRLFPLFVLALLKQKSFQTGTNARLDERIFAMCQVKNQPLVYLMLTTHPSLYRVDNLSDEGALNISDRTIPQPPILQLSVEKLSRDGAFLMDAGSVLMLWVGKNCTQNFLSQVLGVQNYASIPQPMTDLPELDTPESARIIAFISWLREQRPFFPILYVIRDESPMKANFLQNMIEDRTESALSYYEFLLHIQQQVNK

Experiments:
SP-HA-TMED10 WT = target: T1, SP-HA-TMED10 WT (UniProt P49755); experiment: cross-linking + co-IP; HEK TREx-293 TMED10 KO cells co-transfected; 0.2 mM DSP in PBS with 0.2 mM CaCl2, RT 30 min; lysis in 1.0% Triton X-100, 150 mM NaCl, 2 mM CaCl2, pH 7.5; anti-HA agarose or anti-V5 on Protein G Sepharose; immunoblot
T1 sequence: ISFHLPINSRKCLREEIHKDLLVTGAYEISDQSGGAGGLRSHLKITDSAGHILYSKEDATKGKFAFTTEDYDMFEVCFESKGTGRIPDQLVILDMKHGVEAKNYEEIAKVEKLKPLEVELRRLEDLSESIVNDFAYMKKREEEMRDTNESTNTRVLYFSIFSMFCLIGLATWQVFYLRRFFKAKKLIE

LgBiT-SURF4 = LgBiT-SURF4 (UniProt O15260); experiment: split reporter; LgBiT-SURF4 and SmBiT-SEC24A or SmBiT-SEC24C co-expressed in HEK-293TREx double KO cells; NanoGlo Live Cell Substrate, room temperature 15 min; luminescence normalised to WT; also after 4-PBA (4 h) or siRNA against TMED10, TMED2 or LMAN1

binding (SP-HA-TMED10 WT)	binding (LgBiT-SURF4)	Substance
binds		PCSK9-V5 (from UniProt Q8NBP7) (enzyme)
	binds	SmBiT-SEC24A B-site mutant (from UniProt O95486)
	binds	SmBiT-SEC24A D-site mutant (from UniProt O95486)
